Assay results as given in patent US9924719B2, “Pyridazine compound” (Sumitomo Chemical Company, Limited, priority 2014, dated 2018).
Some of these results come from one statement about several compounds together. At least one structure is not confirmed: it was looked up by name or label, or the drawing left a doubt.

Experiments:
Type in all cases: in vivo
[1] = system: cotton aphid (Aphis gossypii); experiment: Test Example 1: foliar spray on cucumber seedling infested with cotton aphid, 500 ppm; conditions: spray 20 mL/seedling on cucumber, 6 days after spraying
[2] = system: cabbage moth (Plutella xylostella); experiment: Test Example 7: spray on cabbage seedling, cabbage moth larvae, 500 ppm; conditions: spray 20 mL/cup on cabbage, 2nd instar larvae, 25° C., 5 days
Procedure: (§1) Meanwhile, cabbage seedling (on the developmental stage of the third true leaf) was planted in a polyethylene cup, and each of the test chemical solution was sprayed into the cabbage seedling in a ratio of 20 mL/cup. After the test chemical solution was dried, the stem and leaf thereof was cut out and then installed into a 50 mL cup. Five (5) heads of 2nd instar larvae of cabbage moth (Plutella xylostella) were released into the cup, and the cup was covered with a lid. After the cup was stored at 25° C. for 5 days, the number of the dead insects was counted, and the mortality of insects was calculated by the following equation. Morality (%)=([…]the number of the dead insects/the number of the test insects)×100

[3] = system: cucurbit leaf beetle (Aulacophora femoralis); experiment: Test Example 11: spray on cucumber seedling, cucurbit leaf beetle larvae, 50 ppm; conditions: Formulation example 1, spray 30 mL/cup on cucumber, second instar larvae, 25° C., 5 days
Procedure: Meanwhile, cucumber seedling (on the developmental stage of the third true leaf) was planted in a polyethylene cup, and each of the test chemical solution was sprayed into the seedling in a ratio of 30 mL/cup. After the test chemical solution was dried, the second leaf thereof was cut out, and then installed into a 200 mL cup. Ten (10) heads of the second instar larvae of cucurbit leaf beetle (Aulacophora femoralis) were released into the cup, and the cup was covered with a lid. After the cup was stored at 25° C. for 5 days, the number of the dead insects was counted, and the mortality of insects was calculated by the following equation. Morality (%)−{the number of the dead insects/the number of the test isects}×100

[4] = system: brown planthopper (Nilaparvata lugens); experiment: Test Example 5: spray on rice seedling, brown planthopper, 200 ppm; conditions: 10 mL spray on rice seedling, 3rd to 4th instar larvae, after 6 days, 25° C.
[5] = system: cabbage moth (Plutella xylostella); experiment: Test Example 8: spray on cabbage seedling, cabbage moth larvae, 200 ppm; conditions: spray 20 mL/cup on cabbage, 2nd instar larvae, 25° C., 5 days
Procedure: as §1, with “of the surviving insects/the number” for “of the dead insects/the number”

[6] = system: cotton aphid (Aphis gossypii); experiment: Test Example 2: foliar spray on cucumber seedling infested with cotton aphid, 200 ppm; conditions: spray 20 mL/seedling on cucumber, 6 days after spraying
[7] = system: brown planthopper (Nilaparvata lugens); experiment: Test Example 6: irrigation at plant foot of rice seedling, brown planthopper, 200 ppm; conditions: 5 mL irrigation at plant foot of rice, larvae released after 7 days, counted after additional 6 days
[8] = system: brown planthopper (Nilaparvata lugens); experiment: Test Example 4: spray on rice seedling, brown planthopper, 500 ppm; conditions: 10 mL spray on rice seedling, 3rd to 4th instar larvae, after 6 days, 25° C.
[9] = system: cotton aphid (Aphis gossypii); experiment: Test Example 3: irrigation at plant foot of cucumber seedling, cotton aphid, 200 ppm; conditions: 5 mL irrigation at plant foot of cucumber, aphids released later, 6 days after release

Compound	controlling value [1] [%]	morality of insects [2] [%]	morality of insects [3] [%]	controlling value [4] [%]	morality of insects [5] [%]	controlling value [6] [%]	controlling value [7] [%]	controlling value [8] [%]	controlling value [9] [%]
CCS(=O)(=O)c1cccnc1-c1ccc(OC(C)C(F)(F)C(F)(F)C(F)(F)F)nn1 (stereo not shown) [Present compound 24]	≥ 90	≥ 80	≥ 85	≥ 90	≥ 80	≥ 90	–	–	–
CCS(=O)(=O)c1cc(C(F)(F)F)cnc1-c1ccc(OCC(F)(F)C(F)(F)F)[n+]([O-])n1 [N-oxide 4]	≥ 90	≥ 80	≥ 85	≥ 90	≥ 80	≥ 90	≥ 90	≥ 90	≥ 90
CCS(=O)(=O)c1cccnc1-c1n[n+]([O-])c(OCC(F)(F)C(F)(F)F)cc1C [N-oxide 3]	≥ 90	–	–	–	–	–	–	–	–
